Test results as given in the supplement of paper PMC12067093, “Discovery and optimisation of a covalent ligand for TRIM25 and its application to targeted protein ubiquitination” (Chemical Science, 2025).
This is one part of the list.

Compound: CC1Cc2ccccc2N1C(=O)C1CCCN(C1)C(=O)CCl (mixture of isomers) [TRIM25 ligand 11 (diastereomer mixture)]
Assay: probe-labelled cysteine peptide fold change vs DMSO (competition) (log2 fold change); higher = less target engagement (more negative = stronger competition)
Conditions: THP-1, incubation time: 4 h
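Further: competitive chemoproteomic profiling in live THP-1 cells with an iodoacetamide desthiobiotin (IA-DTB) probe, comparing probe-labelled peptide intensities in compound-treated cells against DMSO-treated controls.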

| Target | probe-labelled cysteine peptide fold change (10 µM) | probe-labelled cysteine peptide fold change (50 µM) |
| --- | --- | --- |
| DICER1_Q9UPY3_1584_AAQLFLCSLGLK (UniProt Q9UPY3) | -0.0564 | -0.0272 |
| DIP2A_Q14689_6_GCPLEAAPLPAEVR (UniProt Q14689) | -0.175 | -0.385 |
| DHX8_Q14562_1096_HKLDVVSCGK (UniProt Q14562) | 0.0209 | 0.0501 |
| DMXL2_Q8TDJ6_2925_KGHVCIFDIR (UniProt Q8TDJ6) | 0.00104 | 0.142 |
| DLG4_P78352_562_FGSCVPHTTRPK (UniProt P78352) | 0.11 | -0.315 |
| DHX29_Q7Z478_1025_CNLGSPEDFLSK (UniProt Q7Z478) | -0.0291 | 0.144 |
| DNAJC13_O75165_1178_SILGHILPEAMVCYLENYEPEK (UniProt O75165) | 0.195 | -0.119 |
| DNAJA4_Q8WW22_368_EFCPNEQNWR (UniProt Q8WW22) | -0.12 | -0.109 |
| DIS3L2_Q8IYB7_396_DLDDALSCK (UniProt Q8IYB7) | 0.14 | 0.266 |
| DNAJB1_P25685_269_EALCGCTVNVPTLDGR (UniProt P25685) | 0.0447 | 0.0617 |
| DHCR24_Q15392_474_SVHGFQMLYADCYMNREEFWEMFDGSLYHK (UniProt Q15392) | 0.16 | -0.0758 |
| DNAJC3_Q13217_248_ISTLYYQLGDHELSLSEVRECLK (UniProt Q13217) | -0.302 | -0.0891 |
| DHX29_Q7Z478_648_VCDELGCENGPGGR (UniProt Q7Z478) | 0.144 | 0.0951 |
| DHTKD1_Q96HY7_392_LVGCAIIHVNGDSPEEVVR (UniProt Q96HY7) | 0.134 | 0.117 |
| DNAJA1_P31689_271_RGEDLFMCMDIQLVEALCGFQK (UniProt P31689) | -0.021 | 0.281 |
| DHX15_O43143_190_GVACTQPR (UniProt O43143) | 0.175 | 0.239 |
| DIMT1_Q9UNQ2_259_IHCSVHNIIIPEDFSIADK (UniProt Q9UNQ2) | 0.326 | -0.0863 |
| DHX40_Q8IX18_497_LGLSMVEFPLPPHLTCAVIK (UniProt Q8IX18) | 0.107 | 0.0568 |
| DHRS7_Q9Y394_172_CVLPHMIER (UniProt Q9Y394) | -0.0579 | -0.0142 |
| DIAPH1_O60610_796_LVAEDLSQDCFWTK (UniProt O60610) | -0.0218 | 0.0534 |
| DNAJB14_Q8TBM8_77_KPSGSGDQSKPNCTK (UniProt Q8TBM8) | -0.262 | -0.569 |

| Target | probe-labelled cysteine peptide fold change (10 µM) | probe-labelled cysteine peptide fold change (50 µM) |
| --- | --- | --- |
| DHX57_Q6P158_881_CVIHPLHSSLSSEEQQAVFVKPPAGVTK (UniProt Q6P158) | 0.177 | -0.299 |
| DNAJC13_O75165_12_DLACFYTTK (UniProt O75165) | -0.0176 | 0.185 |
| DIS3_Q9Y2L1_483_HLCICSVDPPGCTDIDDALHCR (UniProt Q9Y2L1) | 0.117 | -0.0441 |
| DHX40_Q8IX18_225_LSAFFGNCPIFDIPGR (UniProt Q8IX18) | -0.00196 | 0.294 |
| DNM1L_O00429_505_HPDFADACGLMNNNIEEQRR (UniProt O00429) | -0.0202 | -0.151 |
| DMXL1_Q9Y485_1352_CIAGEVVALNEAESNHER (UniProt Q9Y485) | 0.0707 | -0.383 |
| DHCR24_Q15392_499_LGCQDAFPEVYDK (UniProt Q15392) | -0.0156 | 0.0023 |
| DHX30_Q7L2E3_786_CQSGFAYHLFPR (UniProt Q7L2E3) | 0.0345 | 0.267 |
| DGLUCY_Q7Z3D6_316_GIGHLLCKDELLK (UniProt Q7Z3D6) | -0.338 | -0.199 |
| DLD_P09622_477_VLGAHILGPGAGEMVNEAALALEYGASCEDIAR (UniProt P09622) | 0.0386 | 0.162 |
| DNAJC13_O75165_884_CHEEIGPFTDTR (UniProt O75165) | 0.0697 | 0.17 |
| DNM1_Q05193_427_CVDMVISELISTVR (UniProt Q05193) | -0.0454 | 0.145 |
| DHX8_Q14562_1062_FSNPWCYENFIQAR (UniProt Q14562) | -0.00411 | -0.118 |
| DHX38_Q92620_1074_CICAAYFHQAAK (UniProt Q92620) | 0.0376 | -0.113 |
| DIAPH3_Q9NSV4_249_VIQCLK (UniProt Q9NSV4) | 0.0243 | 0.0391 |
| DHX37_Q8IY37_274_LKLPILSEEQVIMEAVAEHPIVIVCGETGSGK (UniProt Q8IY37) | 0.00405 | -0.0532 |
| DHX9_Q08211_773_VRPGFCFHLCSR (UniProt Q08211) | 0.0368 | -0.252 |
| DNAJA1_P31689_134_NVICDK (UniProt P31689) | 0.0262 | 0.114 |
| DHRS9_Q9BPW9_60_KGFHVIAACLTESGSTALK (UniProt Q9BPW9) | -0.0468 | 0.0975 |
| DHX15_O43143_190_RGVACTQPR (UniProt O43143) | -0.00445 | -0.0278 |
| DIS3L2_Q8IYB7_396_DLDDALSCKPLADGNFK (UniProt Q8IYB7) | 0.0449 | -0.0233 |

| Target | probe-labelled cysteine peptide fold change (10 µM) | probe-labelled cysteine peptide fold change (50 µM) |
| --- | --- | --- |
| DNAAF2_Q9NVR5_701_EYIEHCNTPTTDSDSSIAVK (UniProt Q9NVR5) | -0.0917 | -0.143 |
| DHTKD1_Q96HY7_429_DVIIDLLCYR (UniProt Q96HY7) | 0.00618 | 0.0565 |
| DHX34_Q14147_628_SAQSSPECAAAR (UniProt Q14147) | -0.0842 | -0.0802 |
| DLGAP5_Q15398_696_SSIEDAQCPGLPDLIEENHVVNK (UniProt Q15398) | 0.312 | -0.417 |
| DNAJA1_P31689_180_IHQIGPGMVQQIQSVCMECQGHGER (UniProt P31689) | -0.0655 | -0.0823 |
| DHX37_Q8IY37_616_LCVVATNVAETSLTIPGIK (UniProt Q8IY37) | -0.0366 | 0.0989 |
| DHX15_O43143_174_TTQIPQWCVEYMR (UniProt O43143) | -0.151 | 0.0488 |
| DHX30_Q7L2E3_1183_GPCGSFDVR (UniProt Q7L2E3) | 0.093 | 0.0215 |
| DHX36_Q9H2U1_234_ELVNLIDNHQVTVISGETGCGK (UniProt Q9H2U1) | 0.183 | 0.138 |
| DNAJA4_Q8WW22_272_IQLSEALCGFKK (UniProt Q8WW22) | -0.206 | -0.106 |
| DIAPH2_O60879_484_LDIDLTHLIDSCVNK (UniProt O60879) | 0.0266 | 0.095 |
| DHX15_O43143_774_IAPQYYDMSNFPQCEAK (UniProt O43143) | 0.00644 | -0.154 |
| DHX15_O43143_774_IAPQYYDMSNFPQCEAKR (UniProt O43143) | -0.432 | -0.211 |
| DHX29_Q7Z478_659_NSLCGYQIR (UniProt Q7Z478) | 0.0451 | 0.113 |
| DNAJC10_Q8IXB1_158_EFDAAVNSGELWFVNFYSPGCSHCHDLAPTWR (UniProt Q8IXB1) | -0.0379 | -0.492 |
| DIDO1_Q9BTC0_288+296_CEEWFHGDCVGISEAR (UniProt Q9BTC0) | 0.272 | 0.148 |
| DIAPH2_O60879_775_NEYDDLCEPEQFGVVMSSVK (UniProt O60879) | 0.166 | -0.118 |
| DLGAP5_Q15398_492_QFEGLVDDCEYKR (UniProt Q15398) | -0.0897 | -0.00217 |
| DIS3L_Q8TF46_203_AAHELCDSILQSR (UniProt Q8TF46) | 0.0157 | 0.0268 |
| DIDO1_Q9BTC0_1449_MCADVR (UniProt Q9BTC0) | -0.0543 | -0.242 |
| DMRT1_Q9Y5R6_105_CNLIAER (UniProt Q9Y5R6) | 1.19 | 0.0204 |

Look-ups from the list.
For probe-labelled cysteine peptide fold change (10 µM), DIDO1_Q9BTC0_288+296_CEEWFHGDCVGISEAR (UniProt Q9BTC0) has 0.272
For probe-labelled cysteine peptide fold change (50 µM), DHX29_Q7Z478_659_NSLCGYQIR (UniProt Q7Z478) has 0.113
For probe-labelled cysteine peptide fold change (50 µM), DIAPH2_O60879_775_NEYDDLCEPEQFGVVMSSVK (UniProt O60879) has -0.118
For probe-labelled cysteine peptide fold change (50 µM), DHX15_O43143_774_IAPQYYDMSNFPQCEAKR (UniProt O43143) has -0.211

Remaining list, next part:

| Target | probe-labelled cysteine peptide fold change (10 µM) | probe-labelled cysteine peptide fold change (50 µM) |
| --- | --- | --- |
| DNAJC7_Q99615_317_KLDDAIEDCTNAVK (UniProt Q99615) | 0.0924 | 0.0175 |
| DNAJA3_Q96EY1_236_EFTVNIMDTCER (UniProt Q96EY1) | -0.079 | -0.0851 |
| DISC1_Q9NRI5_239_EAESHCQSPQEMGAK (UniProt Q9NRI5) | 0.0303 | -0.145 |
| DHX38_Q92620_1028_NNNYSTIWCNDHFIHAK (UniProt Q92620) | 0.121 | 0.111 |
| DIEXF_Q68CQ4_311_HVYCLHVINHILK (UniProt Q68CQ4) | -0.0501 | 0.0785 |
| DHX8_Q14562_1108_AICSGFFR (UniProt Q14562) | -0.0633 | -0.149 |
| DMAC2_Q9NW81_159_CCHVDDWCLSR (UniProt Q9NW81) | 0.099 | 0.197 |
| DIAPH1_O60610_1227_KAGCAVTSLLASELTK (UniProt O60610) | -0.315 | -0.271 |
| DIAPH1_O60610_164_DMPLLSCLESLR (UniProt O60610) | -0.149 | 0.0143 |
| DIAPH1_O60610_1227_AGCAVTSLLASELTK (UniProt O60610) | -0.0516 | -0.221 |
| DHX36_Q9H2U1_781_DYCWEYFLSSNTLQMLHNMK (UniProt Q9H2U1) | 0.184 | 0.0577 |
| DMXL1_Q9Y485_551_SIMMYACTK (UniProt Q9Y485) | 0.0718 | -0.0716 |
| DHCR24_Q15392_393_CLQQALHTFQNDIHVYPIWLCPFILPSQPGLVHPK (UniProt Q15392) | 0.14 | -0.425 |
| DIP2A_Q14689_934_FLEGTLHPCNVLMCPHTCVTNLPK (UniProt Q14689) | 0.0229 | 0.0575 |
| DMAC2_Q9NW81_184_LYPLADSLQELSLAGCPR (UniProt Q9NW81) | -0.0317 | -0.00224 |
| DLGAP5_Q15398_381_LPCPLGPLTVWHEEHVLNK (UniProt Q15398) | 0.0766 | 0.0275 |
| DNM1L_O00429_431_CVELVHEEMQR (UniProt O00429) | 0.0335 | -0.103 |
| DIMT1_Q9UNQ2_150_CAILMFQR (UniProt Q9UNQ2) | -0.021 | 0.332 |
| DIS3_Q9Y2L1_474+476_HLCICSVDPPGCTDIDDALHCR (UniProt Q9Y2L1) | -0.108 | -0.0672 |
| DNAJC16_Q9Y2G8_709_YFCLFKPQK (UniProt Q9Y2G8) | -0.116 | -0.179 |
| DIS3L2_Q8IYB7_303_DYANTLFICR (UniProt Q8IYB7) | -0.0883 | 0.0174 |
